Measurements reported in PubChem BioAssay AID504793 (Drosophila RNAi Screening Center, 2011).
The screen tested about 23,000 reagents; shown is an unselected part of those that have a named target and a result. In the full data, 62 (0.27%) were called active. 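Calls come from follow-up tests whose scores are not deposited, so confirmed genes may have low counts here; counts are not normalised per plate.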 The raw values are shown without normalisation. The numbers tell different reagents against one gene apart.

- Test: 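Genes required for cells to halt at G2/M after double-strand DNA breaks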 (primary screen)
- Cells: Drosophila S2R+ cells
- Reagent: long dsRNA against Drosophila genes, about 0.25 µg dsRNA per well
- Timing: 4 days of dsRNA, then 4 hours of drug before read-out
- Challenge: doxorubicin 0.5 µM for 4 hours to cause double-strand breaks, in cells also given a low, harmless dose of dsRNA against nbs to sensitise the assay
- Detection: 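Mitotic index as the number of phospho-histone H3-positive cells in each well following doxorubicin, given as raw counts without normalisation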
- Reading the numbers: mitotic cells: higher = more cells in mitosis, weaker G2 arrest
- Rule for the call: 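Genes are called active only when high mitotic counts were reproduced with independent dsRNAs and mitosis was checked for delay without damage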
- Calls: active = confirmed in follow-up tests; inactive = not confirmed

| target gene | dsRNA no. | mitotic cells, replicate 1 | Outcome |
| --- | --- | --- | --- |
| LpR2 (Lipophorin receptor 2) | 1 | 6 | inactive |
| LpR2 (Lipophorin receptor 2) | 2 | 10 | inactive |
| LpR2 (Lipophorin receptor 2) | 3 | 5 | inactive |
| LpR2 (Lipophorin receptor 2) | 4 | 6 | inactive |
| Blimp-1 | 1 | – | inactive |
| Blimp-1 | 2 | 3 | inactive |
| CG3104 | 1 | 14 | inactive |
| Fnta (Farnesyl transferase alpha subunit) | 1 | 10 | inactive |
| Fnta (Farnesyl transferase alpha subunit) | 2 | 7 | inactive |
| Phax (Phosphorylated adaptor for RNA export) | 1 | 8 | inactive |
| CG5021 | 1 | 6 | inactive |
| Cdc37 (Cell division cycle 37) | 1 | 1 | inactive |
| Cdc37 (Cell division cycle 37) | 2 | 3 | inactive |
| CG9289 | 1 | 6 | inactive |
| CG9289 | 2 | 5 | inactive |
| S-Lap8 (Sperm-Leucylaminopeptidase 8) | 1 | 13 | inactive |
| S-Lap8 (Sperm-Leucylaminopeptidase 8) | 2 | 4 | inactive |
| S-Lap8 (Sperm-Leucylaminopeptidase 8) | 3 | 6 | inactive |
| CG34174 | 1 | 7 | inactive |
| Ir100a (Ionotropic receptor 100a) | 1 | 17 | inactive |
| Ir100a (Ionotropic receptor 100a) | 2 | 2 | inactive |
| alpha-Est10 (alpha-Esterase-10) | 1 | 7 | inactive |
| alpha-Est10 (alpha-Esterase-10) | 2 | 5 | inactive |
| CG14743 | 1 | 2 | inactive |
| su(w[a]) (suppressor of white-apricot) | 1 | 9 | inactive |
| su(w[a]) (suppressor of white-apricot) | 2 | 2 | inactive |
| comm2 | 1 | 8 | inactive |
| CG6484 | 1 | 10 | inactive |
| CG6484 | 2 | 6 | inactive |
| Sdr (Secreted decoy of InR) | 1 | 11 | inactive |
| Drep1 (DNA fragmentation factor-related protein 1) | 1 | 7 | inactive |
| su(sable) (suppressor of sable) | 1 | 6 | inactive |
| CrzR (Corazonin receptor) | 1 | 2 | inactive |
| CrzR (Corazonin receptor) | 2 | 5 | inactive |
| 140up (upstream of RpII140) | 1 | 5 | inactive |
| 140up (upstream of RpII140) | 2 | 3 | inactive |
| Spn43Aa (Serpin 43Aa) | 1 | 2 | inactive |
| GstD4 (Glutathione S transferase D4) | 1 | 3 | inactive |
| GstD4 (Glutathione S transferase D4) | 2 | 5 | inactive |
| sas (stranded at second) | 1 | 13 | inactive |
| RpS24 (Ribosomal protein S24) | 1 | 8 | inactive |
| RpS24 (Ribosomal protein S24) | 2 | 4 | inactive |
| Hnf4 (Hepatocyte nuclear factor 4) | 1 | 7 | inactive |
| Hnf4 (Hepatocyte nuclear factor 4) | 2 | 5 | inactive |
| Grip163 | 1 | 42 | inactive |
| Grip163 | 2 | 23 | inactive |
| ZIPIC (Zinc-finger protein interacting with CP190) | 1 | 7 | inactive |
| Nup188 (Nucleoporin 188kDa) | 1 | 19 | inactive |
| Nup188 (Nucleoporin 188kDa) | 2 | 10 | inactive |
| Oct-TyrR (Octopamine-Tyramine receptor) | 1 | 3 | inactive |
| frac (faulty attraction) | 1 | 5 | inactive |
| frac (faulty attraction) | 2 | 2 | inactive |
| CG13056 | 1 | 5 | inactive |
| CG13056 | 2 | 2 | inactive |
| Atg4a (Autophagy-related 4a) | 1 | 4 | inactive |
| Atg4a (Autophagy-related 4a) | 2 | 4 | inactive |
| CG7236 | 1 | 3 | inactive |
| CG7236 | 2 | 2 | inactive |
| CG42534 | 1 | 13 | inactive |
| CG42534 | 2 | 7 | inactive |
| CG42534 | 3 | 12 | inactive |
| CG42534 | 4 | 7 | inactive |
| CG32483 | 1 | 12 | inactive |
| Rcd1 (Reduction in Cnn dots 1) | 1 | 37 | active |
| Rcd1 (Reduction in Cnn dots 1) | 2 | 44 | active |
| CG11585 | 1 | 13 | inactive |
| CG11585 | 2 | 7 | inactive |
| CG10628 | 1 | 8 | inactive |
| Sclp | 1 | 2 | inactive |
| CG9784 | 1 | 6 | inactive |
| CG9784 | 2 | 8 | inactive |
| CG16781 | 1 | 10 | inactive |
| CG16781 | 2 | 8 | inactive |
| CG31957 | 1 | 5 | inactive |
| Or9a (Odorant receptor 9a) | 1 | 9 | inactive |
| Or9a (Odorant receptor 9a) | 2 | 6 | inactive |
